Drawing on article PMC8224940, this text covers binding for two molecules.

The target of test [1] is HA-tagged RIOK2^S483A (human) (UniProt Q9BVS4). Kind of test: co-IP; HA-RIOK2 (WT or S483A) immunoprecipitated from transfected HEK293 lysate (buffer A with 0.1 M KCl, protein A-Sepharose); endogenous NOB1 detected by Western blot. In general terms: Immunoblotting shows a protein as a band on a membrane.
Test [2] deals with HA-tagged RIOK2^WT (human) (UniProt Q9BVS4). The description is as above.
The next test deals with T1, HA-tagged NOB1 (UniProt Q9ULX3).
T1 sequence: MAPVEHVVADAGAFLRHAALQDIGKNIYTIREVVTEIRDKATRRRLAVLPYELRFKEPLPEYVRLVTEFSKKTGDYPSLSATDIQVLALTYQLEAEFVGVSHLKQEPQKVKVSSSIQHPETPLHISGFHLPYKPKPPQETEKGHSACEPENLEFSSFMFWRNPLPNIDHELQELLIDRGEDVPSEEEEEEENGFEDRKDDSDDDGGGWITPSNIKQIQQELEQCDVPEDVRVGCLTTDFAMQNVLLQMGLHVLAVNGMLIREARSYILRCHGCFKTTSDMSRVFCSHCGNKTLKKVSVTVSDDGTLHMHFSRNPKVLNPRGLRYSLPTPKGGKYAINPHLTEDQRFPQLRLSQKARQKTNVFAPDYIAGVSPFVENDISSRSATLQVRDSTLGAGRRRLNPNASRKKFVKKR
Kind of test: co-IP; HA-NOB1 immunoprecipitated from HEK293 cells co-transfected with Flag-RIOK2 (WT, S483A or S483D) (buffer A with 0.1 M KCl); co-purified proteins of pre-40S particles detected by Western blot.

These are yes or no findings as the source states them, for the method shown. In cells and extracts the contact can be indirect. Some entries that bind do so weakly or less than the wild type. For part of these data: Sequences can lack the tags named with a protein.

B1: endogenous NOB1 (protein, UniProt Q9ULX3 1-412)
chain: T1 sequence
B1: the binding entry in test [1] and in test [2] was “binds” each time.

B2: Flag-tagged RIOK2^S483D (protein, UniProt Q9BVS4 1-552)
chain: MGKVNVAKLRYMSRDDFRVLTAVEMGMKNHEIVPGSLIASIASLKHGGCNKVLRELVKHKLIAWERTKTVQGYRLTNAGYDYLALKTLSSRQVVESVGNQMGVGKESDIYIVANEEGQQFALKLHRLGRTSFRNLKNKRDYHKHRHNVSWLYLSRLSAMKEFAYMKALYERKFPVPKPIDYNRHAVVMELINGYPLCQIHHVEDPASVYDEAMELIVKLANHGLIHGDFNEFNLILDESDHITMIDFPQMVSTSHPNAEWYFDRDVKCIKDFFMKRFSYESELFPTFKDIRREDTLDVEVSASGYTKEMQADDELLHPLGPDDKNIETKEGSEFSFSDGEVAEKAEVYGSENESERNCLEESEGCYCRSSGDPEQIKEDSLSEESADARSFEMTEFNQALEEIKGQVVENNSVTEFSEEKNRTENYNRQDGQRVQGGVPAGSDEYEDECPHLIALSSLNREFRPFRDEENVGAMNQYRTRTLDITSSGSAVSCSTIPPELVKQKVKRQLTKQQKSAVRRRLQKGEANIFTKQRRENMQNIKSSLEAASFWGE
Turning to B2, the binding entry with HA-tagged NOB1 is recorded as “binds”.
